# Results: publication PMC10825269
# By UniProt entry, the sequences of proteins in these tests, tags left out.
# UniProt Q14839: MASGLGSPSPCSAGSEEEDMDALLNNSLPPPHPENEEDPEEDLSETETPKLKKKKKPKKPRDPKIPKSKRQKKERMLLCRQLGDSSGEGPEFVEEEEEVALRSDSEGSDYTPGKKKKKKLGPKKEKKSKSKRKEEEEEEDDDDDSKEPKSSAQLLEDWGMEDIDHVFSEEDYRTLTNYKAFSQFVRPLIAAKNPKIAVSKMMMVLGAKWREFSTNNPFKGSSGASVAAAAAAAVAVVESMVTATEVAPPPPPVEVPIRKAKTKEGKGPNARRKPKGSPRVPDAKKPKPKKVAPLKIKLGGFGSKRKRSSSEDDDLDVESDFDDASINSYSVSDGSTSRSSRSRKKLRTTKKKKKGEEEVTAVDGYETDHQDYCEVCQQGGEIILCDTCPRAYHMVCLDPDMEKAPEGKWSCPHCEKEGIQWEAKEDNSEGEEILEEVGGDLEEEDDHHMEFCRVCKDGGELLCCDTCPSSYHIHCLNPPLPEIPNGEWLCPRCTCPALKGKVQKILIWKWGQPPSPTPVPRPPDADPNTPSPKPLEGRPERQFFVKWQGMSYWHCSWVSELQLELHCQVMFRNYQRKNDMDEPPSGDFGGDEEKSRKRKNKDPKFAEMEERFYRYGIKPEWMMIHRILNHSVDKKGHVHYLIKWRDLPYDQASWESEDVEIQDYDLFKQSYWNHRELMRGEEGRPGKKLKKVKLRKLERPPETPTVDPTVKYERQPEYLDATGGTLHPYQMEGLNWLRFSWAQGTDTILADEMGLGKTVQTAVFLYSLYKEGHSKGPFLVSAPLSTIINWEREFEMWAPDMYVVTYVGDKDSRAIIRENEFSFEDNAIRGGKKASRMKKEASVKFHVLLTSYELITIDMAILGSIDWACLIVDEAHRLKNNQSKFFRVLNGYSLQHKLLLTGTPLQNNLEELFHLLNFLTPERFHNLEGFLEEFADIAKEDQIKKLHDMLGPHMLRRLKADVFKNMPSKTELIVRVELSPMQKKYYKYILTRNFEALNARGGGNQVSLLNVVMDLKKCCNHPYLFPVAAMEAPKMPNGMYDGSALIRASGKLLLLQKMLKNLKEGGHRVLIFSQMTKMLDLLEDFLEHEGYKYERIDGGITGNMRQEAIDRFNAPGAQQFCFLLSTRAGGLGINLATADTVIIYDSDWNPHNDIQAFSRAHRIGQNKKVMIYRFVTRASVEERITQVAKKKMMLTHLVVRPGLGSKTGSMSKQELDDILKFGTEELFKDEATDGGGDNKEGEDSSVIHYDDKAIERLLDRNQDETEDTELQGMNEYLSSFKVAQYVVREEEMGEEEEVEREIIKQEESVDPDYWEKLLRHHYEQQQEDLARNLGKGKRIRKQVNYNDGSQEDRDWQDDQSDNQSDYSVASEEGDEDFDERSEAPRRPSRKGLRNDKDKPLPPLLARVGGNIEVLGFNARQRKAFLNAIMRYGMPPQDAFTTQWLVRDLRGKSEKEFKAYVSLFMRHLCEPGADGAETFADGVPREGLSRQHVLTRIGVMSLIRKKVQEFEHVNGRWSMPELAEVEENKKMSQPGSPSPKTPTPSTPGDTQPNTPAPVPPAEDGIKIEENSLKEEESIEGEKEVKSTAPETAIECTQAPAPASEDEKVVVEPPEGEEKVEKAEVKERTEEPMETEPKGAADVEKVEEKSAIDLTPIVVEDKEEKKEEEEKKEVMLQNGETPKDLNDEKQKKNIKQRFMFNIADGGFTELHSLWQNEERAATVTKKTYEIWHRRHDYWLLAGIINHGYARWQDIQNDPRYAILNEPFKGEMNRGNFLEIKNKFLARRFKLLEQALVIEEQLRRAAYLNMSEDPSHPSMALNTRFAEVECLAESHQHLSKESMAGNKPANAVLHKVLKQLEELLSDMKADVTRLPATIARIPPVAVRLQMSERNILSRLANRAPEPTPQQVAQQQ
# UniProt P03372: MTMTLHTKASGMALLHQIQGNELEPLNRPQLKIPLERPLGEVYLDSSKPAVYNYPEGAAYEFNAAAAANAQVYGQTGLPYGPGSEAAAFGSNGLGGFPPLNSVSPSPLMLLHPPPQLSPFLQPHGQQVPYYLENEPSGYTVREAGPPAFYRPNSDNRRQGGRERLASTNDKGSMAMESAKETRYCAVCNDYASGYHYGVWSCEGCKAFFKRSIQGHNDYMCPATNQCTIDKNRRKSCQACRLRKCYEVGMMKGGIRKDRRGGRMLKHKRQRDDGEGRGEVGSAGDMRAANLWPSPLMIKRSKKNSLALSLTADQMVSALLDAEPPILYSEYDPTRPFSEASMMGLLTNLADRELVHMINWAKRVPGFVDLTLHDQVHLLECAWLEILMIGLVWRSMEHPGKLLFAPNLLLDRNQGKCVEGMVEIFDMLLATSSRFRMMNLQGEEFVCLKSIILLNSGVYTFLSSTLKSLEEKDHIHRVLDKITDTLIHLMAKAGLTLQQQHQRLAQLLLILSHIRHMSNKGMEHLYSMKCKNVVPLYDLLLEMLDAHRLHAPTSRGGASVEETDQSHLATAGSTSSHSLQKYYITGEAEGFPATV
# Results are given in words; binding and its absence hold for the method and conditions named. Binding seen in cells or lysates may run through a third protein. Some binding calls cover weakened binding; strength is not graded here.
# Assays:
# [1] = target: GST-CHD4 fusion protein (UniProt Q14839); experiment: pull-down; purified GST-CHD4 (bait) immobilised on the Pierce Spin Column; prey endogenous ERα from MCF7 cell lysate; WB; GST alone as control; only the target purified
# [2] = target: Flag-CHD4 (chromodomain helicase DNA-binding 4) (UniProt Q14839); experiment: co-IP; HEK293T cells transfected with the indicated plasmids for 36 h; Co-IP with Flag antibody, WB with GFP antibody
# [3] = target: Flag-ERα (estrogen receptor alpha) (UniProt P03372); experiment: as above
# [4] = target: endogenous ERα (estrogen receptor alpha) of MCF7 cells (human (endogenous in MCF7)) (UniProt P03372); experiment: co-IP; endogenous proteins, cells at 90% density; Co-IP with anti-ERα then WB anti-CHD4 in MCF7 cells, or Co-IP with anti-CHD4 then WB anti-ERα in ZR-75-1 cells; control Co-IP with anti-IgG
# [5] = target: endogenous CHD4 (chromodomain helicase DNA-binding 4) of ZR-75-1 cells (human (endogenous in ZR-75-1)) (UniProt Q14839); experiment: as above
substance,measurement,setting,value
endogenous ERα (estrogen receptor alpha) of MCF7 cells (from UniProt P03372 1-595),binding,[1],binds
GFP-ERα (estrogen receptor alpha) (from UniProt P03372 1-595),binding,[2],binds
GFP-CHD4 (chromodomain helicase DNA-binding 4) (from UniProt Q14839 1-1912),binding,[3],binds
endogenous CHD4 (chromodomain helicase DNA-binding 4) of MCF7 cells (from UniProt Q14839 1-1912),binding,[4],binds
endogenous ERα (estrogen receptor alpha) of ZR-75-1 cells (from UniProt P03372 1-595),binding,[5],binds
